Binding data for one molecule are collected here from US20260062455A1 (INSTITUT PASTEUR, published 2026).

No constants are given. Whether binding was seen depends on the method and setting. Some entries that bind do so weakly or less than the wild type. Where a sequence is shown, tags or fusion partners need not be part of it.

For this experiment, the target named is T1, MFSD2ACO expressed in HEK-293T.17 cells (LPC-analog transport assay) (human) (UniProt Q8NA29).
T1 sequence: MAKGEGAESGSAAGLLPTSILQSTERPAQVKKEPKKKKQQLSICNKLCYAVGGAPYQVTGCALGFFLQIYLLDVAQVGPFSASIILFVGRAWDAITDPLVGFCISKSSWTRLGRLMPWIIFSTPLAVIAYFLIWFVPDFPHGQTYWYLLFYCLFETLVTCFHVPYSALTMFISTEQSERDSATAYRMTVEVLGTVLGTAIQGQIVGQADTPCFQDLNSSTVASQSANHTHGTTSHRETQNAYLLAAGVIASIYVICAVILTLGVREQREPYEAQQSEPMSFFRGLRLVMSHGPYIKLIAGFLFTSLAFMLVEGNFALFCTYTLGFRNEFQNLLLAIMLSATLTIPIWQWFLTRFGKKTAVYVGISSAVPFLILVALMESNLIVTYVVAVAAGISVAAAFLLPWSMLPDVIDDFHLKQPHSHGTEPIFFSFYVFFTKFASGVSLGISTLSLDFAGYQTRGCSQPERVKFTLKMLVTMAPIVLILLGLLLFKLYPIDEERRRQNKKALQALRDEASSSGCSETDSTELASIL
Put plainly: FIG. 4F legend; purified soluble fragment added to cells expressing MFSD2A, with binding inferred from transport inhibition.

B1: SYNC2SU-CO (soluble thermostable consensus SYNC2 fragment with C43S), purified, C-terminal EPEA-tag (ligand)
chain: AYRHPDFPLLEKAQQLLQSTGSPYSTNSWLCTSSSTETPGTAYPASPREWTSIEAELHISYRWDPNLKGLMRPANSLLSTVKQDFPDIRQKPPIFGPIFTNINLMGIAPICVTAKRKNGTNVGTLPSTVCNVTFTVDPNQQTYQTYTHNQFRHQPRFPKPPNITFPQGTLLDKSTRFCQGRPSSCSTRNFWFRPADYNQCLQISNLSSTAEWVLLDQTRNSLFWENKTKGANQSQTPCVQVLAGMTIATSYLGISAVSEFFGTSLTPLFHFHISTCLKTQGAFYICGQSIHQCLPSNWTGTCTIGYVTPDIFIAPEPEA
B1: the binding result was “binds”.
